Measurements reported in patent US20150148403A1 (ACADEMIA SINICA, published 2015).
No constants are given. Whether binding was seen depends on the method and setting. Binding seen in cells or lysates may run through a third protein. Some results given as binding are weak or reduced against the parent protein; the word gives no strength. Tags and fused reporters may be left off the sequences shown.

Molecular target: T1, HA-tagged PLZF/RARA
T1 sequence: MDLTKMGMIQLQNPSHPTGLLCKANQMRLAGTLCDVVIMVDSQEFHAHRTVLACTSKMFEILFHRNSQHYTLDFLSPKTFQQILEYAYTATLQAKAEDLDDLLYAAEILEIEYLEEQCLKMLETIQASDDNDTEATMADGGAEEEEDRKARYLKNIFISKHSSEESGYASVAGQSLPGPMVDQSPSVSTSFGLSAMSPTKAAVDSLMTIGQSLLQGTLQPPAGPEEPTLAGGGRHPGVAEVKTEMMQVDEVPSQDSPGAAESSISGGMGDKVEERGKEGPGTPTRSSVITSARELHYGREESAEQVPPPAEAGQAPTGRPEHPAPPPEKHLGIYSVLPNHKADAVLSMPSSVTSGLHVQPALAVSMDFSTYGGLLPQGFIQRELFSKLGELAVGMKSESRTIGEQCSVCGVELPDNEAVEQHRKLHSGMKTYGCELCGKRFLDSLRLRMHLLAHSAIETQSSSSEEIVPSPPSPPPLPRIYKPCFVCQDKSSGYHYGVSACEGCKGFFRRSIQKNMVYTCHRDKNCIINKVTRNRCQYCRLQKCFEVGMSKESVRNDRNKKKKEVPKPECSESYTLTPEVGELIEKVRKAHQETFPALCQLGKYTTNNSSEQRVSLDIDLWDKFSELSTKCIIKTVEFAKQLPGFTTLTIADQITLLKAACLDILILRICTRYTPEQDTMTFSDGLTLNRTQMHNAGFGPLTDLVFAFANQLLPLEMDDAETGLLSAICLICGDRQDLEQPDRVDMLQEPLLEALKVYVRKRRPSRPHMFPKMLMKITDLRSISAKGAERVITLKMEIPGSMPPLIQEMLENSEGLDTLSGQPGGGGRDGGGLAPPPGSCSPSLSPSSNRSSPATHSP
Experiment: co-immunoprecipitation from transfected HEK-293T cells

binding: binds
B1: USP37 C-terminal deletion mutant (1-700) (enzyme, not shown: small tags and cut ends)
chain: MSPLKIHGPIRIRSMQTGITKWKEGSFEIVEKENKVSLVVHYNTGGIPRIFQLSHNIKNVVLRPSGAKQSRLMLTLQDNSFLSIDKVPSKDAEEMRLFLDAVHQNRLPAAMKPSQGSGSFGAILGSRTSQKETSRQLSYSDNQASAKRGSLETKDDIPFRKVLGNPGRGSIKTVAGSGIARTIPSLTSTSTPLRSGLLENRTEKRKRMISTGSELNEDYPKENDSSSNNKAMTDPSRKYLTSSREKQLSLKQSEENRTSGLLPLQSSSFYGSRAGSKEHSSGGTNLDRTNVSSQTPSAKRSLGFLPQPVPLSVKKLRCNQDYTGWNKPRVPLSSHQQQQLQGFSNLGNTCYMNAILQSLFSLQSFANDLLKQGIPWKKIPLNALIRRFAHLLVKKDICNSETKKDLLKKVKNAISATAERFSGYMQNDAHEFLSQCLDQLKEDMEKLNKTWKTEPVSGEENSPDISATRAYTCPVITNLEFEVQHSIICKACGEIIPKREQFNDLSIDLPRRKKPLPPRSIQDSLDLFFRAEELEYSCEKCGGKCALVRHKFNRLPRVLILHLKRYSFNVALSLNNKIGQQVIIPRYLTLSSHCTENTKPPFTLGWSAHMAISRPLKASQMVNSCITSPSTPSKKFTFKSKSSLALCLDSDSEDELKRSVALSQRLCEMLGNEQQQEDLEKDSKLCPIEPDKSELENSGF
